PubChem BioAssay AID720505 – Drosophila RNAi Screening Center, 2013

Screen: 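Knock-downs that reduce calcium influx once internal stores are emptied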 (primary screen)
System: Drosophila S2R+ cells
Reagent: long dsRNA against Drosophila genes
Conditions: thapsigargin (2 µM) in calcium-free buffer to empty internal stores, then 2 mM calcium added back
Measurement: 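Stores emptied by 2 µM thapsigargin without calcium, then 2 mM calcium re-added; fluo-4 fluorescence followed by FLIPR in 384-well plates, per-well averaged endpoint, raw; two screen passes, some wells retested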
Reading the numbers: calcium signal and retest calcium signal: higher = more calcium entry after store depletion
Hit rule: 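About 1500 genes called as lowering calcium entry, by varying amounts, judged against per-plate control wells with STIM1 as positive and Rho1 as negative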
Meaning of the calls: active = called as lowering calcium entry; inactive = not called
The screen tested about 20,000 reagents; below is an unselected part of those with a known target gene and a result. In the full data, about 2,100 (10%) got an active call. 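Raw plate signals without normalisation; calls rest on control-based scores that were not deposited; replicate 2 separates called from uncalled poorly.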 The numbers tell different reagents against one gene apart. A plus sign joins genes that one reagent is predicted to hit. Not given: the amount of reagent, the time to read-out.

| Target gene | reagent no. | calcium signal, replicate 1 | calcium signal, replicate 2 | retest calcium signal, replicate 1 | retest calcium signal, replicate 2 | outcome |
| --- | --- | --- | --- | --- | --- | --- |
| ng2 | 1 | 69.4 | 100 | – | – | inactive |
| Mpcp1 | 1 | 197 | 150 | – | – | inactive |
| NfI | 1 | 68.1 | 145 | – | – | inactive |
| UQCR-Q | 1 | 81.6 | 143 | – | – | inactive |
| CG17019 | 1 | 183 | 115 | – | – | inactive |
| CG14965 | 1 | 129 | 131 | – | – | inactive |
| CCDC151 | 1 | 65 | 50 | – | – | active |
| Arl6 | 1 | 155 | 191 | – | – | inactive |
| CR31822 | 1 | 189 | 95.8 | – | – | inactive |
| kappaB-Ras + CG30503 | 1 | 136 | 140 | – | – | inactive |
| kappaB-Ras + CG30503 | 2 | 121 | 117 | – | – | inactive |
| Nmdar1 | 1 | 120 | 110 | – | – | inactive |
| RanGAP | 1 | 56.2 | 156 | – | – | active |
| CG14610 + asRNA:CR42738 | 1 | 86.5 | 145 | – | – | inactive |
| Nep2 | 1 | 119 | 87 | – | – | inactive |
| Nep2 | 2 | 193 | 129 | – | – | inactive |
| H15 | 1 | 58.7 | 89.7 | – | – | active |
| H15 | 2 | 122 | 214 | – | – | inactive |
| Esp | 1 | 128 | 120 | – | – | inactive |
| Alg10 | 1 | 93 | 103 | – | – | inactive |
| CG17224 | 1 | 79.7 | 116 | – | – | inactive |
| GluRIA | 1 | 71.7 | 75.4 | – | – | inactive |
| Fcp1 | 1 | 209 | 89.8 | – | – | inactive |
| CG34461 | 1 | 65.3 | 59.4 | – | – | inactive |
| CG12279 | 1 | 64.6 | 191 | – | – | active |
| CG4615 | 1 | 73.1 | 122 | – | – | active |
| vir-1 | 1 | 110 | 112 | – | – | inactive |
| vir-1 | 2 | 114 | 88.5 | – | – | inactive |
| CG18324 | 1 | 267 | 167 | – | – | inactive |
| Osi13 | 1 | 104 | 116 | – | – | inactive |
| CG17896 | 1 | 110 | 140 | – | – | inactive |
| CG3764 | 1 | 112 | 88.2 | – | – | inactive |
| CalpB | 1 | 78.2 | 70.4 | – | – | inactive |
| Skp2 + CG14645 | 1 | 99 | 135 | – | – | inactive |
| CG2201 | 1 | 185 | 84.3 | – | – | inactive |
| CG12439 | 1 | 106 | 156 | – | – | inactive |
| CG6996 | 1 | 91.6 | 93.5 | – | – | inactive |
| SdhCL | 1 | 71.4 | 205 | – | – | active |
| TwdlP | 1 | 64.2 | 71.4 | – | – | active |
| Ac13E | 1 | 74.6 | 104 | – | – | inactive |
| CG33128 | 1 | 64.7 | 198 | 180 | 99.1 | active |
| CG30457 | 1 | 192 | 173 | 88.8 | 74.6 | inactive |
| ifc | 1 | 105 | 217 | – | – | inactive |

Laid out differently: 9 of the entries above
CCDC151
- calcium signal, replicate 1: 65
- calcium signal, replicate 2: 50
- outcome: active

Arl6
- calcium signal, replicate 1: 155
- calcium signal, replicate 2: 191
- outcome: inactive

CR31822
- calcium signal, replicate 1: 189
- calcium signal, replicate 2: 95.8
- outcome: inactive

kappaB-Ras + CG30503 #1
- calcium signal, replicate 1: 136
- calcium signal, replicate 2: 140
- outcome: inactive

kappaB-Ras + CG30503 #2
- calcium signal, replicate 1: 121
- calcium signal, replicate 2: 117
- outcome: inactive

Nmdar1
- calcium signal, replicate 1: 120
- calcium signal, replicate 2: 110
- outcome: inactive

RanGAP
- calcium signal, replicate 1: 56.2
- calcium signal, replicate 2: 156
- outcome: active

CG14610 + asRNA:CR42738
- calcium signal, replicate 1: 86.5
- calcium signal, replicate 2: 145
- outcome: inactive

Nep2 #1
- calcium signal, replicate 1: 119
- calcium signal, replicate 2: 87
- outcome: inactive

Continued:
| Target gene | reagent no. | calcium signal, replicate 1 | calcium signal, replicate 2 | retest calcium signal, replicate 1 | retest calcium signal, replicate 2 | outcome |
| --- | --- | --- | --- | --- | --- | --- |
| CG12828 | 1 | 140 | 176 | – | – | inactive |
| scpr-B | 1 | 78.7 | 127 | – | – | active |
| Mco1 | 1 | 159 | 166 | – | – | inactive |
| Mtr4 | 1 | 66.6 | 94.1 | – | – | active |
| HSPBAP1 | 1 | 105 | 80.8 | – | – | inactive |
| CG14543 | 1 | 187 | 102 | – | – | inactive |
| CG13807 | 1 | 55.2 | 99.8 | – | – | inactive |
| CG14857 | 1 | 122 | 188 | – | – | inactive |
| ND-ACP | 1 | 99.2 | 155 | – | – | inactive |
| hpRNA:CR32205 | 1 | 91.8 | 144 | – | – | inactive |
| tefu | 1 | 106 | 133 | – | – | inactive |
| IntS2 | 1 | 153 | 108 | – | – | inactive |
| RpS8 | 1 | 106 | 123 | – | – | active |
| Aldh | 1 | 135 | 116 | – | – | inactive |
| Lamtor3 | 1 | 91.8 | 142 | – | – | inactive |
| CG11134 | 1 | 115 | 169 | – | – | inactive |
| CG1504 | 1 | 156 | 79.9 | – | – | inactive |
| topi | 1 | 117 | 77.5 | – | – | inactive |
| asRNA:CR43477 + CG12256 | 1 | 92.9 | 96.6 | – | – | inactive |
| CG14414 | 1 | 83 | 137 | – | – | inactive |
| Fntb | 1 | 135 | 259 | – | – | inactive |
| CG8671 | 1 | 212 | 81.9 | – | – | inactive |
| CG8671 | 2 | 160 | 92.5 | – | – | inactive |
| kar | 1 | 115 | 112 | – | – | inactive |
| CG30268 | 1 | 99.9 | 108 | – | – | inactive |
| CG17217 | 1 | 93.1 | 108 | – | – | inactive |
| Mad | 1 | 108 | 115 | – | – | inactive |
| CG3149 | 1 | 94.7 | 75.3 | – | – | inactive |
| rho-5 | 1 | 181 | 118 | 71.6 | 74.2 | inactive |
| CheB38a | 1 | 190 | 75.5 | 133 | 136 | inactive |
| Tbca | 1 | 97.4 | 90.1 | – | – | inactive |
| CG3088 | 1 | 117 | 140 | – | – | inactive |
| RpL31 | 1 | 105 | 124 | – | – | inactive |
| bc10 | 1 | 95.5 | 76.9 | – | – | inactive |
| CG43658 | 1 | 65.7 | 124 | – | – | active |
| CG43658 | 2 | 93.9 | 133 | – | – | inactive |
| HDAC4 | 1 | 135 | 95.2 | – | – | inactive |
| Hip14 | 1 | 108 | 124 | – | – | inactive |
| Osi4 | 1 | 117 | 114 | – | – | inactive |
| CG34347 | 1 | 245 | 136 | – | – | inactive |
| CG34347 | 2 | 223 | 114 | – | – | inactive |
| CG34347 | 3 | 30.8 | 40.1 | – | – | active |
| CG34347 | 4 | 78.5 | 105 | – | – | inactive |
| yin | 1 | 119 | 167 | – | – | inactive |
| yin | 2 | 115 | 227 | – | – | inactive |
| Gr47a | 1 | 139 | 173 | – | – | inactive |
| CG33120 | 1 | 110 | 109 | – | – | inactive |
| Pdzd8 | 1 | 128 | 79.7 | – | – | inactive |
| Arc1 | 1 | 172 | 135 | 104 | 108 | inactive |
| p23 | 1 | 129 | 127 | – | – | inactive |
| PGRP-LD + Cralbp + Pmi | 1 | 127 | 95.4 | – | – | inactive |
| CG34398 | 1 | 68.4 | 106 | 113 | 110 | active |
| CG34398 | 2 | 64 | 76.9 | – | – | active |
| CG34398 | 3 | 48.8 | 89.8 | – | – | active |
| CG34398 | 4 | 80.3 | 104 | – | – | active |
| CG34398 | 5 | 123 | 146 | – | – | inactive |
| CG6978 | 1 | 235 | 96.4 | – | – | inactive |
| CG11816 | 1 | 109 | 98.5 | – | – | inactive |
| elm | 1 | 169 | 174 | – | – | inactive |
| CG7218 | 1 | 171 | 403 | – | – | inactive |
| CG15356 | 1 | 122 | 127 | – | – | inactive |
| CG3199 | 1 | 95.1 | 81.9 | – | – | inactive |
| CG17486 | 1 | 149 | 90 | – | – | inactive |
